Data as given in article PMC3767597.
These are yes or no findings as the source states them, for the method shown. Binding seen in cells or lysates may run through a third protein. Some entries that bind do so weakly or less than the wild type.

Chains of the proteins cited; added tags and fusions are not shown.
UniProt Q80U70: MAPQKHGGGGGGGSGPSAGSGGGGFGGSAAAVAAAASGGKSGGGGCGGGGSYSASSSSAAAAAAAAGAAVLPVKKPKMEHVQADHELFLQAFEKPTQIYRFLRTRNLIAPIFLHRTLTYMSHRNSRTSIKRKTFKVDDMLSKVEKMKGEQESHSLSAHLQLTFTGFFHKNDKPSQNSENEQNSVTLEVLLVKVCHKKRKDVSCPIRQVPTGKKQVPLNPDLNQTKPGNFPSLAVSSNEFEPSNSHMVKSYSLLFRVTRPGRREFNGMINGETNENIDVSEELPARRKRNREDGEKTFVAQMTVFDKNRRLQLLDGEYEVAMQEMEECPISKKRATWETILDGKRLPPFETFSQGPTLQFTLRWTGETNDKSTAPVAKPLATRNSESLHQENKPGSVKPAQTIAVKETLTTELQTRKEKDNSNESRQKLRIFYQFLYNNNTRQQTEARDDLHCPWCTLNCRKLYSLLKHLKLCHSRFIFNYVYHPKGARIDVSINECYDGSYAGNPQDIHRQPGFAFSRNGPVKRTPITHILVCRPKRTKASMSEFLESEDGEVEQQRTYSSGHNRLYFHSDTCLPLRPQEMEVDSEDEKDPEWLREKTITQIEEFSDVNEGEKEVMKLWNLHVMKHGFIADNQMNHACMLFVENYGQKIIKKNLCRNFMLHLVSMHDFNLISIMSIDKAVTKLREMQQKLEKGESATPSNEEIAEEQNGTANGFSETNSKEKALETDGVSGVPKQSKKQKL
UniProt Q921E6: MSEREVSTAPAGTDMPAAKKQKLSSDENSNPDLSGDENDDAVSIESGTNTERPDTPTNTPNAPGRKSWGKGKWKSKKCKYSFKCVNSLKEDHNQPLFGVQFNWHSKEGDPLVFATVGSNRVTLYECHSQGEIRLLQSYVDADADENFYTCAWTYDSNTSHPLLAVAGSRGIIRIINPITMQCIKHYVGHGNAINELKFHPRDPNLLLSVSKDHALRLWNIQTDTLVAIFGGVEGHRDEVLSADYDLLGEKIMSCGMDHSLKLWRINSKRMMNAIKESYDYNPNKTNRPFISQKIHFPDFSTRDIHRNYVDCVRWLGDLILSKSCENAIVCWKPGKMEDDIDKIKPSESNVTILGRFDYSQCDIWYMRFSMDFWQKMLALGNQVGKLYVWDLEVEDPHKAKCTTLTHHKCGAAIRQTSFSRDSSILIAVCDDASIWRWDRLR
UniProt Q61188: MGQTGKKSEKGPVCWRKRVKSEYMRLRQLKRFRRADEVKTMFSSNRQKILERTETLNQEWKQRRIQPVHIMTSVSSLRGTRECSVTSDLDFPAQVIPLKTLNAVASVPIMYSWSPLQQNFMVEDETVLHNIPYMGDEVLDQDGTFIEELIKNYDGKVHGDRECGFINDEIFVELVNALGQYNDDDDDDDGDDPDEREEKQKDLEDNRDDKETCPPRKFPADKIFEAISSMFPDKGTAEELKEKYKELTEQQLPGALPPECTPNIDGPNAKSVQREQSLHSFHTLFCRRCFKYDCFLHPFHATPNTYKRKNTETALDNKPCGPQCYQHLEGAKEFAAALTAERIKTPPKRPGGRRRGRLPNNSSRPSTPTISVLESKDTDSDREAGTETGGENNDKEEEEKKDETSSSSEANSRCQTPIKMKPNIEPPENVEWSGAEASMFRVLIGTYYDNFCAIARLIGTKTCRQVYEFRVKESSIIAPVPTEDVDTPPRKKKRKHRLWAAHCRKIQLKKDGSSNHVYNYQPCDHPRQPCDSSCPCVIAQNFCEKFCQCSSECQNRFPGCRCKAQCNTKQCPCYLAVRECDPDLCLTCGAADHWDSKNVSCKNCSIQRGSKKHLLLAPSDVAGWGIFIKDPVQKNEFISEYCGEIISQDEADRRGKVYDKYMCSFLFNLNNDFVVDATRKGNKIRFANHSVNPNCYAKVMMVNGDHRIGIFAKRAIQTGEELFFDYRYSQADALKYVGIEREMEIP

Columns and labels:
[1] = molecular target: T1, Additional sex combs-like 2 (ASXL2) (mouse (endogenous in heart)) (UniProt Q8BZ32); experiment: co-IP; nuclear pellet of homogenized whole mouse hearts (wild-type; for the PRC2 subunits also Asxl2 -/-) extracted in high salt buffer (50mM HEPES, 300mM NaCl, 10mM NaF, 1mM EDTA, 1% Triton-X, 1mM Na3VO4); IP with antibodies against the protein of interest and Dynabeads Protein G; mock IP with pre-immune serum; Western blot
T1 sequence: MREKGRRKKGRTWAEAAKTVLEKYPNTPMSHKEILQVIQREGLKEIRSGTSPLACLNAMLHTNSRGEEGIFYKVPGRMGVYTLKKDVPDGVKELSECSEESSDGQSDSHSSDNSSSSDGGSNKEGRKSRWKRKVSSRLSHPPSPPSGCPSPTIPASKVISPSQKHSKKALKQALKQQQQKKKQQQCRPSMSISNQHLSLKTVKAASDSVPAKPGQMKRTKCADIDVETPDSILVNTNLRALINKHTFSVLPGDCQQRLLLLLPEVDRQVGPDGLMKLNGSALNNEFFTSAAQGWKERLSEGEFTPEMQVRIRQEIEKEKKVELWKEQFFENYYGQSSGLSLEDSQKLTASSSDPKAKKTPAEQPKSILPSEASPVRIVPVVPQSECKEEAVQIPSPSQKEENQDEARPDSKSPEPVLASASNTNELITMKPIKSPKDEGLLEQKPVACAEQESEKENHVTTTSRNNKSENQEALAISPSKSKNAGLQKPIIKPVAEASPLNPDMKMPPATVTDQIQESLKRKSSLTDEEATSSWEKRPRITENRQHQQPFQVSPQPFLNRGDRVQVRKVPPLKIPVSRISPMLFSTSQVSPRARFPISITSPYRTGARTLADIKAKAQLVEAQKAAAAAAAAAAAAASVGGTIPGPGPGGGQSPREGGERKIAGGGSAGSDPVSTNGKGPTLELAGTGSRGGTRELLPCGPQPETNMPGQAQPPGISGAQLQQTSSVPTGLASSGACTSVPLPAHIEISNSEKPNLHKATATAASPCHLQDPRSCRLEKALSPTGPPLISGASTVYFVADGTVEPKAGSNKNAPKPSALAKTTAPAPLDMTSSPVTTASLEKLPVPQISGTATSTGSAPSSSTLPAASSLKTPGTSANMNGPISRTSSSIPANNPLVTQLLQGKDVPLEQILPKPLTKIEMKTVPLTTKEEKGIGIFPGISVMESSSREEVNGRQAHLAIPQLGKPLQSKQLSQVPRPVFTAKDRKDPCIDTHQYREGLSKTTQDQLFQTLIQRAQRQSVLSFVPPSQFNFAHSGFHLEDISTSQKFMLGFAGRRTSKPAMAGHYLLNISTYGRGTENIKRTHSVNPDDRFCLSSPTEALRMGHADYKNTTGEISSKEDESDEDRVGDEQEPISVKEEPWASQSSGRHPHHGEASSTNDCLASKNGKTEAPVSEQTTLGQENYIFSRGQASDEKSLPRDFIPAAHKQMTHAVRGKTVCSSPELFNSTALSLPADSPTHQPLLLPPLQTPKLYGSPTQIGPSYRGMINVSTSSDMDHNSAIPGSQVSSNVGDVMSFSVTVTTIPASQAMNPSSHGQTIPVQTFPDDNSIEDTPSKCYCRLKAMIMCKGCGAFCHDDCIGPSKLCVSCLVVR

[2] = molecular target: SUZ12 (mouse (endogenous in heart)) (UniProt Q80U70); experiment: as above

Substance | binding [1] | binding [2]
SUZ12 (from UniProt Q80U70 1-741) | binds | –
EED (from UniProt Q921E6 1-441) | – | binds
EZH2 (from UniProt Q61188 1-746) | binds | –
